According to paper PMC12462935, “TRIM21‐Mediated K11‐Linked Ubiquitination of ID1 Suppresses Tumorigenesis and Promotes Cuproptosis in Esophageal Squamous Cell Carcinoma” (Advanced Science, 2025):
Results are given in words; binding and its absence hold for the method and conditions named. Binding seen in cells or lysates may run through a third protein. Here binding means that the protein was enriched with, or labelled near, the bait; the list need not be complete. Sequences can lack the tags named with a protein.

The chains behind the UniProt entries cited, without tags or fusion partners.
UniProt Q16531: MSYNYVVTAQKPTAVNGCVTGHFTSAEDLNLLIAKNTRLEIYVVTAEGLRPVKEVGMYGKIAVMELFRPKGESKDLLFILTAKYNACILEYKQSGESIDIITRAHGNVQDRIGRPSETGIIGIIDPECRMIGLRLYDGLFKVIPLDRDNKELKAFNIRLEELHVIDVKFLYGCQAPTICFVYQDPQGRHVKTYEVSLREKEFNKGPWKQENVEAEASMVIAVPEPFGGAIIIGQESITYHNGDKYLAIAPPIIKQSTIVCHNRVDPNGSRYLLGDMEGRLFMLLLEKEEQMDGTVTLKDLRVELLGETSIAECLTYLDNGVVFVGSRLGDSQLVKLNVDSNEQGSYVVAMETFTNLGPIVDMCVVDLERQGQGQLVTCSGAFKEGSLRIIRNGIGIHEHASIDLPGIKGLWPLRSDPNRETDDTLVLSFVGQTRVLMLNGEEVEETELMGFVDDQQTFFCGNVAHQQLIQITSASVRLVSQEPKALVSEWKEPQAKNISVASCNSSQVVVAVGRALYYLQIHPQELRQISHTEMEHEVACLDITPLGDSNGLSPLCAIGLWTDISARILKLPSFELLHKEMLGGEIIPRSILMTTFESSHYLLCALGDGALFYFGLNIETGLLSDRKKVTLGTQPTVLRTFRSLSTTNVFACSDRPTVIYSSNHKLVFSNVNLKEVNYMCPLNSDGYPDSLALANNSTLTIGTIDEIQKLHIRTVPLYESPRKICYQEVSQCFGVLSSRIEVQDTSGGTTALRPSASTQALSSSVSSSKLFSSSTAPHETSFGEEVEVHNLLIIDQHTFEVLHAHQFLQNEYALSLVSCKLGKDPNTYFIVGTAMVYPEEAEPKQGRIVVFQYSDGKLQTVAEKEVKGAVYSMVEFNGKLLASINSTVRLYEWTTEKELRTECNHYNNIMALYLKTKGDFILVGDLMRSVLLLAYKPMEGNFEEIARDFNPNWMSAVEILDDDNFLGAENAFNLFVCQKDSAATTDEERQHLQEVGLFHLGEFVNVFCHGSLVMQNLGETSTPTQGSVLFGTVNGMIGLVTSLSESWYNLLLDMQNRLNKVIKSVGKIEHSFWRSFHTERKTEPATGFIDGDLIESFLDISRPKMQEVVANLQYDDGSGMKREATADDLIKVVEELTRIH
UniProt Q14681: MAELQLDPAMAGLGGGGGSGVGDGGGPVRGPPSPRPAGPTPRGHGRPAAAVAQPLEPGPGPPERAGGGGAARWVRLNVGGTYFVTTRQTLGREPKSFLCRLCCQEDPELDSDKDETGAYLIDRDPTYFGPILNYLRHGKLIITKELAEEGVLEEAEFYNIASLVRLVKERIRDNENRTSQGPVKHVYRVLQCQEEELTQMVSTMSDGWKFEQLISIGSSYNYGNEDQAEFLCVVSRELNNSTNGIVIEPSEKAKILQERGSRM
UniProt P15884: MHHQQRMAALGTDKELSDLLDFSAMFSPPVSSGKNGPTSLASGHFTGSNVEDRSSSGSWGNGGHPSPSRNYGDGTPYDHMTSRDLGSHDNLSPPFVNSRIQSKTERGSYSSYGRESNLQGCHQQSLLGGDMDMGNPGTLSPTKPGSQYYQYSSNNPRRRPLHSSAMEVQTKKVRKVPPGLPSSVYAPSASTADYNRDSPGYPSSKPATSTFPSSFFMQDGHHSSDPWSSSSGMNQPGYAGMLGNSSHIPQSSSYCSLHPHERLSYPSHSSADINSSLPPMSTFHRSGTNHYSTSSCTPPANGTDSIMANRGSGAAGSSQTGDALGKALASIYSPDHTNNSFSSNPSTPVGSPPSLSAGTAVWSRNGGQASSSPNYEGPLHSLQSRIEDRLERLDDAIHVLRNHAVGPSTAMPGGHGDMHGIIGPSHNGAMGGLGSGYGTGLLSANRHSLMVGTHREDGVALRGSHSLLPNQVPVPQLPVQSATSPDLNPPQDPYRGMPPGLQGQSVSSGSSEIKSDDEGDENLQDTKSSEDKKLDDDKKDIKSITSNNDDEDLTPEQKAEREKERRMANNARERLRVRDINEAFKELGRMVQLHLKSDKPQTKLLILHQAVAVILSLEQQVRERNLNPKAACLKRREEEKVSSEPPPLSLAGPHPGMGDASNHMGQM
UniProt Q9NXV2: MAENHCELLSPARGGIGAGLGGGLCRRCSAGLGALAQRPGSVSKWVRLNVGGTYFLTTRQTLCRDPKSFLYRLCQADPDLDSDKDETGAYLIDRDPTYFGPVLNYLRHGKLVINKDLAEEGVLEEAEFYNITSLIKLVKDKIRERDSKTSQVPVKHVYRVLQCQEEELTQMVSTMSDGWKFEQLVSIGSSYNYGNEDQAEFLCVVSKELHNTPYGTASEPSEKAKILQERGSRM
UniProt Q9UNE7: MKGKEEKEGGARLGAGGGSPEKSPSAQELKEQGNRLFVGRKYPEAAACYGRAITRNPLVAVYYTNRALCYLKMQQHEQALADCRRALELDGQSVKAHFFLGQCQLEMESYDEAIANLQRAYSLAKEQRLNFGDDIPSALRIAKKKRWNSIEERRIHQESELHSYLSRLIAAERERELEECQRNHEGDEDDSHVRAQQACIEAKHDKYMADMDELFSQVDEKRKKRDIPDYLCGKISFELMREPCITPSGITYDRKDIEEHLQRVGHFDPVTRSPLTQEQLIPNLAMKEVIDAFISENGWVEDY
UniProt P19474: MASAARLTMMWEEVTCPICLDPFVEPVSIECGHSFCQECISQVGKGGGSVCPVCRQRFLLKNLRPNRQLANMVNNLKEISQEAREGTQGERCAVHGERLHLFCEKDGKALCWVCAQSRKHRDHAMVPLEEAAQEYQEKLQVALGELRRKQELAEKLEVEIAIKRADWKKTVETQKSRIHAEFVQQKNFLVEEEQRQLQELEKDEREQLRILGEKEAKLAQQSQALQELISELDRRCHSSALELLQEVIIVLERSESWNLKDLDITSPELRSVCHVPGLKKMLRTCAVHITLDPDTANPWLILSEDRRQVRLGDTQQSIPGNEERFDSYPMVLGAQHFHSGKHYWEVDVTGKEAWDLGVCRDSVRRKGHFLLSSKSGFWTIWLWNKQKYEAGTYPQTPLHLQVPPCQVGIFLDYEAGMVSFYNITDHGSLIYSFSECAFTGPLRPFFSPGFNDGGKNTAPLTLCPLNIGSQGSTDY
UniProt Q13263: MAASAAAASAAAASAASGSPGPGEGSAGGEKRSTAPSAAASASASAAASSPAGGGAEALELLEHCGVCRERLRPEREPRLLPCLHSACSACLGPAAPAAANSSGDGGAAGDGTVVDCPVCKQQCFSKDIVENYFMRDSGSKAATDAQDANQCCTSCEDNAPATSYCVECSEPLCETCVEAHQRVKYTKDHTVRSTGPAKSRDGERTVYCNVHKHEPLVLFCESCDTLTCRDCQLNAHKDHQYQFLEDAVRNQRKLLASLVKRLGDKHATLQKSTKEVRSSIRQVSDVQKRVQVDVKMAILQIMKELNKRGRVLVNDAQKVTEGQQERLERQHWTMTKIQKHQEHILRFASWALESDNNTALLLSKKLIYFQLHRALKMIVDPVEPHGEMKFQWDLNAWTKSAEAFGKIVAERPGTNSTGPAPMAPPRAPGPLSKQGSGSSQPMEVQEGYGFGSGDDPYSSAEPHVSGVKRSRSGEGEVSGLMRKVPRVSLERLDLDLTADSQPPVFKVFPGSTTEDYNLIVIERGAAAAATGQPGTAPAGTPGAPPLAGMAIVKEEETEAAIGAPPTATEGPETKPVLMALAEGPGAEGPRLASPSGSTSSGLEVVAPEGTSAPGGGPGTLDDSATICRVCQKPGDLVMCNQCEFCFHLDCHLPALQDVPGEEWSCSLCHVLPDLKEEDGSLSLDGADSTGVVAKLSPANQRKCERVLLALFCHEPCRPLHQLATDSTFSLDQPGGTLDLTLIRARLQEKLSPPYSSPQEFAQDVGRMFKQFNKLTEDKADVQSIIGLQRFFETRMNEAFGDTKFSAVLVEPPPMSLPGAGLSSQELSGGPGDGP

Target: T1, ID1-Flag (UniProt P41134)
T1 sequence: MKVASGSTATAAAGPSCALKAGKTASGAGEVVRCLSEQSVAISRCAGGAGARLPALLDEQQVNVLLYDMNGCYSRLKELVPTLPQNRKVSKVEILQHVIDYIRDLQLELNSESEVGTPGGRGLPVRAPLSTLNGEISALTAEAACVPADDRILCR
Assay: affinity purification with mass spectrometry; KYSE30 and KYSE450 cells transfected with control or ID1-Flag plasmids, harvested 48 h post-transfection; immunoprecipitates separated by SDS-PAGE, in-gel trypsin digestion, Q Exactive HF

Row | binding | Substance
1 | binds | DDB1 (endogenous) (from UniProt Q16531 1-1140)
2 | binds | KCTD2 (endogenous) (from UniProt Q14681 1-263)
3 | binds | TCF4 (endogenous) (from UniProt P15884 1-667)

The remaining lines, values behind:

Row | Substance | binding
4 | KCTD5 (endogenous) (from UniProt Q9NXV2 1-234) | binds
5 | STUB1 (endogenous) (from UniProt Q9UNE7 1-303) | binds
6 | TRIM21 (endogenous) (from UniProt P19474 1-475) (enzyme) | binds
7 | TRIM28 (endogenous) (from UniProt Q13263 1-835) | binds
